Measured values: PubChem BioAssay AID1259415 (National Center for Advancing Translational Sciences (NCATS), 2018)
About 18,000 (4.4%) of roughly 410,000 compounds were called active. Inconclusive means that the source gave no clear call. Such entries were picked first, then a sample of the others. Rule as the data show it: active = activity change below about -60%; inconclusive = no clear call, values can overlap the other calls; inactive = above about -39%.

Assay: qHTS Assay for inhibitors of the human cytomegalovirus (HCMV)
Settings: HFF cells, HCMV-luciferase reporter, 72 h; at 57.5 µM; hits give low values
In short: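 Screen run at 2 compound doses on HFFs infected with reporter HCMV, MOI 1 PFU/cell. Luciferase activity from cell lysates at 72 h post infection gave inhibition relative to buffer-only and Salinomycin wells.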
% is scaled to controls: 0 for no effect and ±100 for the full control effect.

SMILES | activity change, negative = inhibition
COC(=O)c1cccc(N(CC(=O)NC2CCCCC2)C(=O)CNC(=O)c2cccs2)c1 | inconclusive: -42%
Cc1ccc(C)c(CN2CCC(CNC(=O)CCc3nnc4ccc(N5CCCCC5)nn34)CC2)c1 | inconclusive: -42.5%
CCN(C(=O)COC(=O)CCC(=O)c1cccs1)c1c(N)n(Cc2ccccc2)c(=O)[nH]c1=O | inactive: -18%
CCNC(=O)CSc1nc2cc(S(=O)(=O)Nc3ccc(OC)cc3)ccc2o1 | inconclusive: -45.8%
CCCn1c2ccccc2c2cnn(CC(=O)NCC3CCN(Cc4ccc(C)cc4)CC3)c(=O)c21 | inconclusive: -52.4%
COc1ccccc1Nc1nc(NCC2CCCO2)c2ccccc2n1 (configuration not stated) | inconclusive: -46.9%
Cn1c(=O)c(Sc2ccc(Cl)cc2)c(O)c2ccccc21 | inconclusive: -40.6%
COc1cc(CNc2ncnc3c2ncn3[C@H]2CN(Cc3ccc(-c4ccccc4)cc3)C[C@@H](CO)O2)cc(OC)c1OC | active: -65.9%
COc1ccc(OCC(=O)Nc2ccc(-c3nc4cc(Cl)ccc4o3)cc2)cc1 | inconclusive: -48.2%
COc1cc(/C=N/NC(=O)/C(=C/c2ccccc2)CCO)ccc1O | inactive: 7.03%
CCN(C(=O)c1cccnc1SC)C12CC3CC(CC(C3)C1)C2 | inconclusive: -40.9%
COc1cc(C)c(C)cc1S(=O)(=O)N1CCCCC1c1cccnc1 (configuration not stated) | inconclusive: -40.1%
CCCCCN(CCCCC)C(=O)C(CCC(=O)O)NC(=O)c1ccc(Cl)c(Cl)c1 (configuration not stated) | active: -60.7%
CCOc1ccc(CC(=O)NCC2(N3CCCCC3)CCCCC2)cc1 | inconclusive: -42.2%
CCSc1nc(N)c(C#N)c(-c2ccccc2Cl)c1C#N | active: -63.5%
CC(C)Oc1cc(C(=O)NC2CCCCC2)c2ccccc2n1 | inactive: 3.71%
CCOC(=O)[C@@H]1[C@H]2COc3cc(OC)ccc3[C@H]2N2C(=O)N(c3ccc(Br)cc3)C(=O)[C@]12C | inconclusive: -40.3%
COc1cccc(-c2nn(C)c3sc(C(=O)N4CCOCC4)cc23)c1 | inactive: 89.8%
COc1ccc(-c2ccc(C3C(C#N)=C(N)Oc4n[nH]c(C)c43)o2)cc1 (configuration not stated) | inactive: -4.45%
O=C(c1cnccn1)N1CCCC(N2CCN(c3cccc(Cl)c3)CC2)C1 (configuration not stated) | inactive: -12.9%
CCOc1ccc(N2C(=O)CC(N(C)Cc3ccccc3)C2=O)cc1 (configuration not stated) | inconclusive: -42.7%

Given as labelled records: part of the list above.
CCNC(=O)CSc1nc2cc(S(=O)(=O)Nc3ccc(OC)cc3)ccc2o1
  activity change, negative = inhibition: inconclusive: -45.8%
CCCn1c2ccccc2c2cnn(CC(=O)NCC3CCN(Cc4ccc(C)cc4)CC3)c(=O)c21
  activity change, negative = inhibition: inconclusive: -52.4%
COc1cc(/C=N/NC(=O)/C(=C/c2ccccc2)CCO)ccc1O
  activity change, negative = inhibition: inactive: 7.03%
COc1cc(C)c(C)cc1S(=O)(=O)N1CCCCC1c1cccnc1 (configuration not stated)
  activity change, negative = inhibition: inconclusive: -40.1%

The listing continues.

SMILES | activity change, negative = inhibition
COc1ccc(C(=O)Nn2c(SCC(=O)NCC3CCCO3)nc3ccccc3c2=O)cc1 (configuration not stated) | inconclusive: -60%
CCOC(=O)c1cccnc1SCC(=O)N(CC)c1cccc(C)c1 | inconclusive: -56.2%
CCOC(=O)c1ccc(NC(=O)c2c(NCc3sccc3C)sc3c2CCC(C)C3)cc1 (configuration not stated) | inactive: -19.2%
N#CC1=C(N)NC(SCC(=O)c2ccc(Br)cc2)=C(C#N)C12CCCCC2 | inconclusive: -53.1%
CCCS(=O)(=O)c1nc(S(=O)(=O)c2ccc(C)cc2)c(N2CC(C)OC(C)C2)s1 (configuration not stated) | inactive: -33.2%
CN1CCN(C(=O)C[C@H]2CC[C@H]3[C@@H](COC[C@@H](O)CN3Cc3cccc(F)c3)O2)CC1 | inactive: 14.9%
CC(C)NCC(O)c1ccc(O)c(O)c1 (configuration not stated) | inconclusive: -41%
CC(C)C(C)NC(=O)COC(=O)C1CCN(S(=O)(=O)c2ccc3c(c2)OCCO3)CC1 (configuration not stated) | inactive: -12.3%
Cc1onc(-c2c(F)cccc2Cl)c1-c1nnc(-c2ccc(C(F)(F)F)cc2)o1 | inconclusive: -46%
CN(C(=O)C1CCC(=O)N(Cc2ccccc2F)C1)C1CCOCC1 (configuration not stated) | inactive: 38.8%
O=C(c1ccco1)N1CCN(c2ccc([N+](=O)[O-])cc2Cl)CC1 | inconclusive: -41.2%
CC(C(=O)OCC(=O)c1ccc(Br)cc1)N1C(=O)C2C3C=CC(C3)C2C1=O (configuration not stated) | inactive: 12.8%
Cn1cnnc1SCC(=O)N1N=C2/C(=C/c3ccco3)CCCC2C1c1ccco1 (configuration not stated) | active: -61.3%
COc1ccc(-c2cc(=O)n(CCC#N)[nH]2)cc1 | inconclusive: -46.9%
CCOC(=O)CSc1nc2ccccc2c(=O)n1CC(C)C | inactive: -33.3%
O=C(CN1CCN(S(=O)(=O)c2ccc3ccccc3c2)CC1)N1CCc2ccccc2C1 | inconclusive: -43.3%
Cc1nn(Cc2ccc(Cl)cc2)c(C)c1NC(=O)/C=C/c1cnn(C)c1 | inconclusive: -50.6%
COc1ccc(OC)c(C2C(C(=O)Nc3ccc(C)cc3C)=C(C)Nc3c(C(=O)Nc4ccc(F)cc4)cnn32)c1 (configuration not stated) | inactive: 2.75%
Cc1cc(C)c2nc(N(CCCN(C)C)C(=O)C3=COCCO3)sc2c1 | inactive: -2.44%
O=C(CSc1nc2c(sc3ccccc32)c(=O)n1CCCN1CCCC1)NCc1ccco1 | inconclusive: -48.6%
CS(=O)(=O)c1ccc(CNC(=O)C2(C(F)(F)F)C/C(=C/CCO)CCCO2)cc1 (configuration not stated) | inactive: -2.31%

SMILES | activity change, negative = inhibition
COc1ccc(/C=C/CN2CCC(CO)(Cc3ccccc3Cl)CC2)cc1 | active: -69.6%
CCN(CC)S(=O)(=O)c1ccc(Nc2cc(C)nc3ncnn23)cc1 | inactive: 126%
Cc1cc(Nc2cccc(C(F)(F)F)c2)nc2ccc(NC(=O)Cc3ccc(Cl)cc3)cc12 | active: -103%
Cc1ccc(CN(Cc2ccccc2)C(=S)NCC(=O)N2CCC3(CC2)OCCO3)o1 | inconclusive: -42.5%
COCCN(C(=O)CCC(=O)Nc1ccccn1)C(C(=O)NC(C)C)c1ccc(C)cc1 (configuration not stated) | inconclusive: -46.9%
CCOC(=O)Cn1c(S(=O)(=O)Cc2ccc(F)cc2)nc(-c2ccccc2)c1-c1ccccc1 | active: -78.1%
Fc1ccc(-c2noc3ncnc(NCCc4ccc(Cl)cc4)c23)cc1 | inconclusive: -53.2%
COc1ccc(Nc2cc(C)c3cc(NC(=O)c4ccccc4Cl)ccc3n2)cc1 | inconclusive: -54.6%
CCCCCCN1C[C@@H](n2cc(COC(=O)c3ccccc3)nn2)[C@H](O)C[C@@H]1c1ccc(Cl)cc1 | active: -101%
Cc1ccccc1-n1ccnc1SCC(=O)Nc1cccc(S(=O)(=O)NC2=NCCC2)c1 | active: -61%
Cc1cc(C)cc(NC(=O)N2c3ccccc3NC(=O)CC2C)c1 (configuration not stated) | inactive: -7%
Cc1cccc(N2CCN(S(=O)(=O)c3cc(C(=O)Nc4ccc(Oc5ccccc5)cc4)ccc3F)CC2C)c1 (configuration not stated) | active: -64%
O=C(Nc1nc2ccccc2[nH]1)c1cccc([N+](=O)[O-])c1 | inactive: 54%
Cc1ccc(S(=O)(=O)N2CCN(C(=O)COC(=O)CC(C)c3ccccc3)CC2)c(C)c1 (configuration not stated) | inactive: 4.49%
C=C1C(=O)OCC2C(C(=O)O)=CC3C(C)C(C)=CC123 (configuration not stated) | inconclusive: -44.4%
Cc1ccc(-c2cc(C(=O)N3CCOCC3)c3cc(C)ccc3n2)cc1 | inactive: 13%
COc1ccnc(Oc2ccccc2)c1C#N | inconclusive: -58.5%
CC(=O)N/C(=C\c1ccccc1)C(=O)OC(C)C(=O)NCc1ccccc1 (configuration not stated) | inactive: -37.5%
NS(=O)(=O)c1ccc(N=Nc2c(=O)[nH]n3c(=O)c4c([nH]c23)CCCC4)cc1 | inactive: 1.93%
CCCOc1ccc(C(=O)Nc2cc(S(=O)(=O)N3CCOCC3)ccc2N2CCOCC2)cc1 | inactive: 0%
COc1ccc(C(=O)NCC(=O)N/N=C/c2ccc([N+](=O)[O-])s2)cc1OC | active: -92.4%

SMILES | activity change, negative = inhibition
Cc1cc(C)c(S(=O)(=O)NCc2ccc3c(c2)CCN3C(=O)c2ccccc2)c(C)c1 | active: -60.3%
O=C(CN1CCN(C(C(=O)Nc2ccc(F)cc2)c2ccccc2)CC1)NC1CC1 (configuration not stated) | inactive: 0.0037%
COc1cc(/C=C(/NC(=O)c2ccccc2)C(=O)Nc2ccc(O)cc2)c([N+](=O)[O-])cc1OC | active: -73.2%
CCCC(C(=O)NC1CCCC1)N(Cc1ccc2c(c1)OCO2)C(=O)c1snc(C(N)=O)c1N (configuration not stated) | inconclusive: -51.7%
C=CCCC1CN(Cc2ccc(OC)cc2)S(=O)(=O)c2c(Oc3ccc(F)cc3OC)cccc2O1 (configuration not stated) | inconclusive: -51.4%
CC(=O)Nc1ccc(S(=O)(=O)NCCCc2ccccc2)cc1 | inactive: -29.4%
CC(C)[C@@H]1C=C(C(=O)O)O[C@H](OCCCCO)C1 | inactive: 11.6%
NC(=O)CSc1cn(Cc2cccc(F)c2)c2ccccc12 | inconclusive: -51.4%
CN(Cc1ccccc1)[C@@H]1CC[C@@]23CCCN2C(=O)CCC[C@H]3[C@H]1Cc1ccccc1 | inactive: 30.1%
O=C(Nc1cccc(Cl)c1)c1nc[nH]c1C(=O)Nc1ccccc1F | inconclusive: -53.8%
Cc1ccc(-n2c(O)c(C=Nc3ccccc3-c3n[nH]c(=S)[nH]c3=O)c3ccccc3c2=O)cc1C | inconclusive: -56.1%
COc1cc(CC(=O)OCC(=O)c2ccc3c(c2)OCCO3)cc(OC)c1OC | active: -71.3%
COc1cc(NC(=O)Cn2nnc(-c3ccccc3N)n2)cc(OC)c1 | inactive: -3.45%
CCCS(=O)(=O)c1ccc(COC(=O)Cc2ccc([N+](=O)[O-])cc2)cc1 | inactive: 0.354%
Cc1ccnc(NC(=O)CCC(=O)N(CC(=O)NCc2ccc(F)cc2)c2ccc(F)cc2)c1 | inconclusive: -44.9%
CCc1nc(CN2CCCC(C(=O)Nc3ccc(-c4cccc(OC)c4)cc3)C2)c(C)[nH]1 (configuration not stated) | inconclusive: -48.5%
COc1ccc(C2=NS(=O)(=O)N(C)C(C(=O)Nc3ccc(C(C)=O)cc3)=C2)cc1OC | inconclusive: -45.9%
O=C(Nc1nccs1)c1c(O)c2cccc3c2n(c1=O)CCC3 | active: -95.3%
CCOc1c(Br)cc(C2C=C(C(=O)O)Nc3ncnn32)cc1OC (configuration not stated) | inconclusive: -41.5%
